# Measurements reported in the supplement of paper PMC9135407.
# Values joined by “and” are separate entries in the source; they are usually repeats but may differ in a detail not shown here. Identical values can stand only once. Counter-ions that a name gives are not always drawn. ± gives the standard deviation of the averaged measurements. The list shows a part of the results. Plates or batches differ in their baseline, so values are only roughly comparable.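 Culture-activated primary human stellate myofibroblasts, where regained lipid droplets signal inactivation. Value: share of Hoechst-counted cells above a per-plate Bodipy cutoff, in duplicate wells, with DMSO negative and nortriptyline positive controls on each plate. Hits: a control-normalized score above the plate's top-tenth-percentile nortriptyline wells, or one of a plate's three best wells. Final well concentrations are not given.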
# System: primary human hepatic stellate cells (donor 1)
# Experiment: percent Bodipy-positive cells; higher = more lipid droplet accumulation
# Conditions: 48 h
# [1] = library stock concentration: 10 mM
# [2] = library stock concentration: 3.33 mM
# [3] = library stock concentration: 7.2 mM
# [4] = library stock concentration: 1 mM
smiles,measurement,setting,value
COc1ccc(CCN2CCC(Nc3nc4ccccc4n3Cc3ccc(F)cc3)CC2)cc1 [Astemizole],percent Bodipy-positive cells,,98.82 ± 0.14%
"COc1ccc2c(c1OC)C(=O)O[C@H]2[C@@H]1c2cc3c(cc2CCN1C)OCO3 [1s,9r-hydrastine]",percent Bodipy-positive cells,[1],28.3 ± 8.2%
"CCCN1CCO[C@@H]2c3cc(O)ccc3OC[C@H]21 [(?)-PD 128,907 hydrochloride]",percent Bodipy-positive cells,[1],13.2 ± 3.1%
CCCN1CCO[C@@H]2c3cc(O)ccc3OC[C@H]21,percent Bodipy-positive cells,[2],11.5 ± 4.7%
same,percent Bodipy-positive cells,[1],11.4% and 5.28%
C=CCC1(C(C)CCC)C(=O)NC(=S)NC1=O (centres undefined) [Thiamylal sodium],percent Bodipy-positive cells,[3],1.15 ± 0.57%
CCCCCCCCCCCCCCCC[n+]1ccccc1 [Cetylpyridinium chloride],percent Bodipy-positive cells,library stock concentration: 5.9 mM,89.1 ± 13%
same,percent Bodipy-positive cells,[1],77%
CCCCCCCCCCCCCCCC[n+]1ccccc1 [Cetylpyridinium Chloride],percent Bodipy-positive cells,[2],20.9 ± 14%
same,percent Bodipy-positive cells,[1],100%
c1ccc2c3c([nH]c2c1)CNCC3,percent Bodipy-positive cells,[1],52 ± 6.6%
Fc1cc(F)c2c(c1)[C@H]1C=CC[C@@H]1C(c1cccnc1)N2 (some centres undefined) [Golgicide A],percent Bodipy-positive cells,[2],99.38 ± 0.2%
same,percent Bodipy-positive cells,[1],94.03 ± 0.75%
CC(=O)O[C@@H]1CC[C@@]2(C)[C@@H](CC[C@@H]3[C@@H]2CC[C@]2(C)C(=O)CC[C@@H]32)C1 [Androsterone acetate],percent Bodipy-positive cells,[1],35.3 ± 0.74%
c1ccc(/N=N/c2ccccc2)cc1 [Azobenzene],percent Bodipy-positive cells,[1],34.1 ± 15%
CCCCCCC(=O)CCCCCC/C=C/C[C@@H](O)[C@H](O)[C@@](N)(CO)C(=O)O [Myriocin],percent Bodipy-positive cells,[4],11.6 ± 1.4%
CCOP(=S)(OCC)Oc1nc(Cl)c(Cl)cc1Cl,percent Bodipy-positive cells,[1],26.91 ± 0.14%
CCOC(=O)c1ncn2c1CN(C)C(=O)c1cc(N=[N+]=[N-])ccc1-2,percent Bodipy-positive cells,[1],5.14 ± 2.4%
CCCn1c(C)c(C(=O)c2cccc3ccccc23)c2ccccc21,percent Bodipy-positive cells,[4],7.06 ± 2.8%
CCCCCCC(=O)O[C@H]1CC[C@H]2[C@@H]3C=CC4=CC(=O)CC[C@]4(C)[C@H]3CC[C@]12C [.DELTA.6-Testosterone Enanthate],percent Bodipy-positive cells,[4],8.74 ± 1.3%
O=P1(N(CCCl)CCCl)NCCCO1 (centres undefined) [Cyclophosphamide hydrate],percent Bodipy-positive cells,[3],1.19 ± 0.64%
same,percent Bodipy-positive cells,[1],9.55 ± 3.4%
O=P1(N(CCCl)CCCl)NCCCO1 (centres undefined) [Cytoxan],percent Bodipy-positive cells,[1],22.6 ± 5.2%
O=P1(N(CCCl)CCCl)NCCCO1 (centres undefined) [Cyclophosphamide monohydrate],percent Bodipy-positive cells,library stock concentration: 7.7 mM,5.38 ± 3.5%
same,percent Bodipy-positive cells,[1],29.3 ± 7.3%
c1ccc2c(c1)sc1ccccc12 [Dibenzothiophene],percent Bodipy-positive cells,[2],12.8 ± 3%
same,percent Bodipy-positive cells,library stock concentration: 10.9 mM,3.16 ± 0.48%
CCCN[C@@H]1CCc2c(OC)cccc2[C@@H]1C [(+)-AJ 76 hydrochloride],percent Bodipy-positive cells,[1],23.5 ± 5.4%
CCCCC/C=C\C/C=C\C/C=C\C/C=C\CCCC(=O)NCCCC(=O)O [N-Arachidonoyl-.gamma.-Aminobutyric Acid],percent Bodipy-positive cells,[4],14.5 ± 3.6%
CO[C@@H]1C=C2CCN(C)[C@@H]2C2c3cc4c(cc3C(=O)OC21)OCO4 (some centres undefined) [Ungerine nitrate],percent Bodipy-positive cells,,6.69 ± 0.15%
CCCCC/C=C\C/C=C\C/C=C\C/C=C\CCCC(=O)Nc1ccc([N+](=O)[O-])cc1 [Arachidonoyl p-Nitroaniline],percent Bodipy-positive cells,[4],16.3 ± 3.5%
CC(=O)OCC1=C(C(=O)[O-])N2C(=O)[C@@H](NC(=O)CCC[C@@H](N)C(=O)[O-])[C@H]2SC1.[Zn+2] [Cephalosporin C zinc salt],percent Bodipy-positive cells,[1],57.3 ± 0.95%
CN(C)[C@@H]1C(=O)C(C(N)=O)=C(O)[C@@]2(O)C(=O)C3=C(O)c4c(O)cccc4[C@@](C)(O)[C@H]3[C@H](O)[C@@H]12 [Oxytetracycline (Terramycin)],percent Bodipy-positive cells,[2],16.9 ± 13%
same,percent Bodipy-positive cells,[1],16.8 ± 1.6%
CN1C(=O)CCS(=O)(=O)C1c1ccc(Cl)cc1 (centres undefined) [Chlormezanone],percent Bodipy-positive cells,,20.9 ± 8.5%
same,percent Bodipy-positive cells,[2],9.93 ± 1.9%
CC(=O)NC1CCSC1=O (centres undefined) [Citiolone],percent Bodipy-positive cells,[1],38.41 ± 0.36%
O=C(O)[C@@H]1CCN1 [L-azetidine-2-carboxylic acid],percent Bodipy-positive cells,[1],51.8 ± 5.5%
O=C(O)Cc1cnc[nH]1 [Imidazole-4-acetic acid hydrochloride],percent Bodipy-positive cells,[1],44.6 ± 25%
CCCCC/C=C\C/C=C\C/C=C\C/C=C\CCCC(=O)N[C@@H](C)C(=O)O [N-Arachidonoyl-L-Alanine],percent Bodipy-positive cells,[4],13 ± 2%
CNC(=O)Oc1ccccc1OC(C)C,percent Bodipy-positive cells,[1],17.6 ± 1.7%
C[C@H]1CC[C@]2(NC1)O[C@H]1C[C@H]3[C@@H]4CC[C@H]5C[C@@H](O[C@@H]6O[C@H](CO)[C@H](O[C@@H]7O[C@H](CO)[C@@H](O)[C@H](O[C@@H]8OC[C@@H](O)[C@H](O)[C@H]8O)[C@H]7O[C@@H]7O[C@H](CO)[C@@H](O)[C@H](O)[C@H]7O)[C@H](O)[C@H]6O)CC[C@]5(C)[C@H]4CC[C@]3(C)[C@H]1[C@@H]2C [Tomatine],percent Bodipy-positive cells,,99.38 ± 0.88%
COc1ccc(C(=O)OC2C[C@H]3CC[C@@H](C2)N3C)cc1OC (some centres undefined) [Convolamine hydrochloride],percent Bodipy-positive cells,,36.3 ± 4.9%
COc1cc2c(cc1O)C[C@H]1c3c(cc(O)c(OC)c3-2)CCN1C [Boldine],percent Bodipy-positive cells,,30.8 ± 4.4%
O=C1C2CCN(CC2)C1(CO)CO,percent Bodipy-positive cells,[4],7.65 ± 2.9%
same,percent Bodipy-positive cells,[1],5.44 ± 0.45%
O=C1CCO1 [Beta-propiolactone],percent Bodipy-positive cells,[1],35.6 ± 5.4%
same,percent Bodipy-positive cells,library stock concentration: 27.8 mM,8.86 ± 2%
O=C(CCCN1CCC(n2c(=O)[nH]c3ccccc32)CC1)c1ccc(F)cc1 [Benperidol],percent Bodipy-positive cells,,48.6 ± 13%
C[C@]12CC[C@H](O)C[C@H]1CC[C@@H]1[C@@H]2CC[C@]2(C)[C@@H](C3=CC(=O)OC3)CC[C@]12O [Digitoxigenin],percent Bodipy-positive cells,,90 ± 4.5%
CCC(Oc1ccc(Cl)cc1)C(=O)OC1CC2CCC(C1)N2C.O=C(O)/C=C\C(=O)O (centres undefined) [SM-21 maleate],percent Bodipy-positive cells,[1],56 ± 3%
c1ccc2sc(C3(N4CCCCC4)CCCCC3)cc2c1 [BTCP maleate],percent Bodipy-positive cells,[1],41 ± 13%
c1ccc2sc(C3(N4CCCCC4)CCCCC3)cc2c1 [BTCP hydrochloride],percent Bodipy-positive cells,[1],89.1 ± 5.5%
CN/C(=N\S(=O)(=O)c1ccc(Cl)cc1)N1C[C@H](c2ccccc2)C(c2ccc(Cl)cc2)=N1,percent Bodipy-positive cells,[4],7.56 ± 3%
N#C/C(=C\c1ccc(O)c(O)c1)C(N)=S [Tyrphostin 47],percent Bodipy-positive cells,[1],13.7 ± 2%
N#C/C(=C\c1ccc(O)c(O)c1)C(N)=S [AG213 (Tyrphostin 47)],percent Bodipy-positive cells,library stock concentration: 22.7 mM,9.52 ± 1.3%
C[N+]1(C)C2CCC1CC(OC(=O)c1c[nH]c3ccccc13)C2 (centres undefined) [3-Tropanylindole-3-carboxylate methiodide],percent Bodipy-positive cells,[1],16.5 ± 3%
C[C@@H]1CN([C@H]2CC[C@](C#N)(c3ccc(F)cc3)CC2)CC[C@]1(C(=O)O)c1ccccc1 [Levocabastine HCl],percent Bodipy-positive cells,library stock concentration: 4.8 mM,9.58 ± 1%
C[C@@H]1CN([C@H]2CC[C@](C#N)(c3ccc(F)cc3)CC2)CC[C@]1(C(=O)O)c1ccccc1 [Levocabastine hydrochloride],percent Bodipy-positive cells,,7.97 ± 0.39%
